Source: publication PMC8808184
These are yes or no findings as the source states them, for the method shown.

Amino acid sequences for entries named in this document (tags omitted). Residues count along the entry.
UniProt Q06481, residues 46-205: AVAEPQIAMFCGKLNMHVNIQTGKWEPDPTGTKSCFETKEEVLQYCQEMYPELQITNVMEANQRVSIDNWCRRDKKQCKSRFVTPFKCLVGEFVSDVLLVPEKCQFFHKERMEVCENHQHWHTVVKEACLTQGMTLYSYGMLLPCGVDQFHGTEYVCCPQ
UniProt P12023, residues 28-189: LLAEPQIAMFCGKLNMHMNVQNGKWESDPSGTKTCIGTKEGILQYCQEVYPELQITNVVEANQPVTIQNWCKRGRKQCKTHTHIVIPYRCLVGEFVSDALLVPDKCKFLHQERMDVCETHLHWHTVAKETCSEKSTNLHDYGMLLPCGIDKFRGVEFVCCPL

Experiments:
[1] = molecular target: E1 domain of APLP2 (species not named; size-exclusion chromatography) (not stated (human, chicken and zebrafish APLP2 used)) (UniProt Q06481); test: SEC; size-exclusion chromatography of the purified fragments; both purified
[2] = molecular target: E1 domain of APP (species not named; size-exclusion chromatography) (not stated (chicken, human and mouse APP and zebrafish APPb made)) (UniProt P12023); test: as above

Substance | binding [1] | binding [2]
E1 domain of APLP2 (species not named; size-exclusion chromatography) (from UniProt Q06481 46-205) (domain or fragment) | no binding | –
E1 domain of APP (species not named; size-exclusion chromatography) (from UniProt P12023 28-189) (domain or fragment) | – | no binding
